Publication PMC7264293, “Multi-site-mediated entwining of the linear WIR-motif around WIPI β-propellers for autophagy” (Nature Communications, 2020)
Positions count from the first letter of the chain named. No constants are given. Whether binding was seen depends on the method and setting. For some of these results: In cells and extracts the contact can be indirect. Some results given as binding are weak or reduced against the parent protein; the word gives no strength. Tags and fused reporters may be left off the sequences shown.

By UniProt entry, the sequences of proteins in these tests, tags left out. Where a name states a change or a piece, a line headed by the entry shows the natural chain unless it says otherwise. Chains listed by the source or under a name are the forms on record and can include a tag or linker.
WIPI3-Δloop N19A/D21A (Q5MNZ6, form named): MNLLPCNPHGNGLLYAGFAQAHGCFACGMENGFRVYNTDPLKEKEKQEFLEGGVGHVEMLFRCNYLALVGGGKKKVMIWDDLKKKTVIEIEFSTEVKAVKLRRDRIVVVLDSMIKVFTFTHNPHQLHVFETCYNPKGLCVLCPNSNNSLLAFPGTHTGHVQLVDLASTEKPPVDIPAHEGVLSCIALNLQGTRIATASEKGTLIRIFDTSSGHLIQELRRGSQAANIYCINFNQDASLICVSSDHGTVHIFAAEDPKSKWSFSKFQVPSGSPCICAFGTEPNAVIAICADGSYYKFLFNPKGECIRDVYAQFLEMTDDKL
WIPI3-Δloop (Q5MNZ6, form named): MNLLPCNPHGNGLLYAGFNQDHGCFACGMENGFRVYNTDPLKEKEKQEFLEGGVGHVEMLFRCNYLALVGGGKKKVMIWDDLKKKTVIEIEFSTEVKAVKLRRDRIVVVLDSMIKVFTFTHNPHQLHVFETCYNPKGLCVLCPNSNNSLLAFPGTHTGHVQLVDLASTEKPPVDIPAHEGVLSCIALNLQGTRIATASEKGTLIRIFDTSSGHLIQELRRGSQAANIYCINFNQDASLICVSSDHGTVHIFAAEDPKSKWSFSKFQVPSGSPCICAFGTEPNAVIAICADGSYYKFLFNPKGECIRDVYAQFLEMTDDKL

How the values were obtained:
[1] = target: Tandem-Strep-Flag-tagged full-length ATG2A (wild-type) (human) (UniProt Q2TAZ0); assay: pull-down; GFP-WIPI4 and TSF-ATG2A co-transfected into HEK293T cells; lysate on Strep-Tactin Sepharose beads, 1 h at 4 °C; eluted with desthiobiotin; western blot with anti-GFP and anti-Flag
[2] = target: WIPI3-Δloop N19A/D21A (human) (UniProt Q5MNZ6); assay: ITC; WIPI3 proteins in the sample cell, GB1-tagged ATG2A fragments in the syringe; 25 °C; 50 mM Tris-HCl pH 8.0, 100 mM NaCl, 1 mM EDTA, 1 mM DTT; model of one binding site; both purified
WIPI3-Δloop (human) = WIPI3-Δloop (human) (UniProt Q5MNZ6); assay: as above

B1: GFP-tagged WIPI4 (protein, UniProt Q9Y484 1-360)
chain: MTQQPLRGVTSLRFNQDQSCFCCAMETGVRIYNVEPLMEKGHLDHEQVGSMGLVEMLHRSNLLALVGGGSSPKFSEISVLIWDDAREGKDSKEKLVLEFTFTKPVLSVRMRHDKIVIVLKNRIYVYSFPDNPRKLFEFDTRDNPKGLCDLCPSLEKQLLVFPGHKCGSLQLVDLASTKPGTSSAPFTINAHQSDIACVSLNQPGTVVASASQKGTLIRLFDTQSKEKLVELRRGTDPATLYCINFSHDSSFLCASSDKGTVHIFALKDTRLNRRSALARVGKVGPMIGQYVDSQWSLASFTVPAESACICAFGRNTSKNVNSVIAICVDGTFHKYVFTPDGNCNREAFDVYLDICDDDDF
Question: Which binding [1] does the source give for B1 here?
Answer: binds

B2: GB1-tagged ATG2A short fragment (1374-1404), the WIR-peptide (peptide, UniProt Q2TAZ0 1374-1404)
chain: PRDGEPVVTQLHPGPIVVRDGYFSRPIGSTD
Question: With B2 as the binder, how does the binding [2] read?
Answer: no binding

B3: GB1-tagged WIR-peptide with a glycine inserted between R1392 and D1393 (peptide, UniProt Q2TAZ0 1374-1404)
chain: PRDGEPVVTQLHPGPIVVRGDGYFSRPIGSTD
Question: For B3, which binding (WIPI3-Δloop (human)) is on record?
Answer: no binding

B4: GB1-tagged WIR-peptide with a glycine inserted between D1393 and G1394 (peptide, UniProt Q2TAZ0 1374-1404)
chain: B3 chain with G20D, D21G
Question: How did the binding (WIPI3-Δloop (human)) turn out when B4 was run?
Answer: no binding
